Measurements reported in PubChem BioAssay AID743121 (NCATS, 2013).
Assay: 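Knock-downs that sensitise breast cancer cells to camptothecin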 (primary screen). Cells: MDA-MB-231 cells, a human breast cancer line. Reagent: single siRNA against human genes, 20 nM siRNA (0.8 pmol per well). Timing: 120 h (drug added 48 h after transfection, read 72 h later). Conditions: camptothecin 20 nM (about EC30) for 72 h; vehicle 0.1% DMSO in parallel plates. Measured: 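CellTiter-Glo ATP signal, scaled to control siRNA as percent viability; sensitisation given as log2 of untreated divided by camptothecin-treated viability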. Reading the numbers: log2 vehicle/camptothecin viability: higher = stronger sensitisation to camptothecin. Active means: 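Active genes have an RSA gene-level p-value below 0.001, computed from the ratios of their separate siRNAs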.
Shown is a random part of about 26,000 reagents. 167 of all reagents (0.63%) count as active. 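Calls are per gene from RSA p-values that are not deposited; an individual active-marked siRNA can sensitise only weakly.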 The numbers tell different reagents against one gene apart. Further read-outs or replicates are left out here.

gene knocked down | siRNA no. | log2 vehicle/camptothecin viability | outcome
ARRB1 (GeneID 408) | 1 | 0.0319 | inactive
ARRB1 (GeneID 408) | 2 | -0.687 | inactive
ARRB1 (GeneID 408) | 3 | 0.782 | inactive
ARRB1 (GeneID 408) | 4 | 0.0657 | inactive
PELO (GeneID 53918) | 1 | -0.399 | inactive
PELO (GeneID 53918) | 2 | 0.0249 | inactive
PELO (GeneID 53918) | 3 | -0.293 | inactive
PELO (GeneID 53918) | 4 | -0.294 | inactive
ITK (GeneID 3702) | 1 | -0.598 | inactive
ITK (GeneID 3702) | 2 | -0.627 | inactive
ITK (GeneID 3702) | 3 | 0.069 | inactive
ITK (GeneID 3702) | 4 | -0.0967 | inactive
RFPL1 (GeneID 5988) | 1 | -0.0182 | inactive
RFPL1 (GeneID 5988) | 2 | -0.098 | inactive
RFPL1 (GeneID 5988) | 3 | -0.266 | inactive
RFPL1 (GeneID 5988) | 4 | 1.89 | inactive
RFPL1 (GeneID 5988) | 5 | 0.272 | inactive
EPHB6 (GeneID 2051) | 1 | -0.668 | inactive
EPHB6 (GeneID 2051) | 2 | 0.635 | inactive
EPHB6 (GeneID 2051) | 3 | -0.068 | inactive
EPHB6 (GeneID 2051) | 4 | -0.0467 | inactive
CDCA5 (GeneID 113130) | 1 | -0.287 | inactive
CDCA5 (GeneID 113130) | 2 | -0.465 | inactive
CDCA5 (GeneID 113130) | 3 | -0.302 | inactive
CDCA5 (GeneID 113130) | 4 | -0.325 | inactive
PMS1 (GeneID 5378) | 1 | -0.229 | inactive
PMS1 (GeneID 5378) | 2 | -0.169 | inactive
PMS1 (GeneID 5378) | 3 | -0.367 | inactive
PMS1 (GeneID 5378) | 4 | -0.111 | inactive
BCL2L13 (GeneID 23786) | 1 | -0.406 | inactive
BCL2L13 (GeneID 23786) | 2 | 0.0786 | inactive
BCL2L13 (GeneID 23786) | 3 | -0.698 | inactive
BCL2L13 (GeneID 23786) | 4 | -0.741 | inactive
B4GALNT1 (GeneID 2583) | 1 | -0.196 | inactive
B4GALNT1 (GeneID 2583) | 2 | -0.713 | inactive
B4GALNT1 (GeneID 2583) | 3 | 0.233 | inactive
B4GALNT1 (GeneID 2583) | 4 | -0.42 | inactive
HESX1 (GeneID 8820) | 1 | -0.28 | inactive
HESX1 (GeneID 8820) | 2 | -0.125 | inactive
HESX1 (GeneID 8820) | 3 | 0.24 | inactive
HESX1 (GeneID 8820) | 4 | 0.0535 | inactive
ITSN2 (GeneID 50618) | 1 | -0.0894 | inactive
ITSN2 (GeneID 50618) | 2 | 0.359 | inactive
ITSN2 (GeneID 50618) | 3 | -0.19 | inactive
ITSN2 (GeneID 50618) | 4 | 0.108 | inactive
NHLRC2 (GeneID 374354) | 1 | -0.0851 | inactive
NHLRC2 (GeneID 374354) | 2 | -0.25 | inactive
NHLRC2 (GeneID 374354) | 3 | -0.554 | inactive
NHLRC2 (GeneID 374354) | 4 | -0.197 | inactive
TLR9 (GeneID 54106) | 1 | -0.0515 | inactive
TLR9 (GeneID 54106) | 2 | 0.0666 | inactive
TLR9 (GeneID 54106) | 3 | -0.641 | inactive
TLR9 (GeneID 54106) | 4 | -0.322 | inactive
CYP1B1 (GeneID 1545) | 1 | -0.329 | inactive
CYP1B1 (GeneID 1545) | 2 | 0.17 | inactive
CYP1B1 (GeneID 1545) | 3 | -0.164 | inactive
CAMK2A (GeneID 815) | 1 | -0.367 | inactive
CAMK2A (GeneID 815) | 2 | -0.0782 | inactive
CAMK2A (GeneID 815) | 3 | 0.0999 | inactive
CAMK2A (GeneID 815) | 4 | -0.0827 | inactive
APLNR (GeneID 187) | 1 | -0.0137 | inactive
APLNR (GeneID 187) | 2 | -0.42 | inactive
APLNR (GeneID 187) | 3 | -0.427 | inactive
APLNR (GeneID 187) | 4 | 0.469 | inactive
HEG1 (GeneID 57493) | 1 | -0.422 | inactive
HEG1 (GeneID 57493) | 2 | 0.206 | inactive
HEG1 (GeneID 57493) | 3 | -0.303 | inactive
HEG1 (GeneID 57493) | 4 | -0.307 | inactive
NR4A3 (GeneID 8013) | 1 | -0.24 | inactive
NR4A3 (GeneID 8013) | 2 | -0.235 | inactive
NR4A3 (GeneID 8013) | 3 | -0.0273 | inactive
TMT1B (GeneID 196410) | 1 | 0.421 | inactive
TMT1B (GeneID 196410) | 2 | -0.0106 | inactive
TMT1B (GeneID 196410) | 3 | -0.493 | inactive
TMT1B (GeneID 196410) | 4 | 0.0233 | inactive
CP (GeneID 1356) | 1 | 0.0736 | inactive
CP (GeneID 1356) | 2 | -0.521 | inactive
CP (GeneID 1356) | 3 | -0.445 | inactive
CP (GeneID 1356) | 4 | -0.705 | inactive
DGKD (GeneID 8527) | 1 | -0.186 | inactive
DGKD (GeneID 8527) | 2 | -0.044 | inactive
DGKD (GeneID 8527) | 3 | -0.00777 | inactive
DGKD (GeneID 8527) | 4 | 0.161 | inactive
RNF123 (GeneID 63891) | 1 | -0.306 | inactive
RNF123 (GeneID 63891) | 2 | 0.0448 | inactive
RNF123 (GeneID 63891) | 3 | 0.206 | inactive
RNF123 (GeneID 63891) | 4 | -0.213 | inactive
